# Test results from patent US20190040155A1 (AFFIMED, published 2019).
# These are yes or no findings as the source states them, for the method shown. Some results given as binding are weak or reduced against the parent protein; the word gives no strength.
# T1: CD30 (UniProt P28908 19-595, limits assumed)
# T1 construct: whole, on cells; also called CD30 on CD19-/CD30+ KARPAS-299 cells
# T1 sequence (looked up): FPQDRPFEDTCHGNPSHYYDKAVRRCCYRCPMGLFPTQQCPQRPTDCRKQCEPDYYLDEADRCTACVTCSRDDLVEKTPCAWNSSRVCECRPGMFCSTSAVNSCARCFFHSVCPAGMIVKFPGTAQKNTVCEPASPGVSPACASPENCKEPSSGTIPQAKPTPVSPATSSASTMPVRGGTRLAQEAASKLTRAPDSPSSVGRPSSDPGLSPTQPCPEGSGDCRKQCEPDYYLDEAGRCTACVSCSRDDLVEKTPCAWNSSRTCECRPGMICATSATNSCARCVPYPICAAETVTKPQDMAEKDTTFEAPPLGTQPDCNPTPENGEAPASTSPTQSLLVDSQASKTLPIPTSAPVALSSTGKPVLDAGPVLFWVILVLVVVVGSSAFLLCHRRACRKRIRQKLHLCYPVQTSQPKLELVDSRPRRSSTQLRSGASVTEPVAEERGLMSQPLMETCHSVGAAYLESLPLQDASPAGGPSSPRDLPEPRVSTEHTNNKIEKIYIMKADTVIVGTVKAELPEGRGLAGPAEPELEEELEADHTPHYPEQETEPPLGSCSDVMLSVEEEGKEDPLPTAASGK
# B1: aTriFlex_103 (protein)
# chain 1: SYVLTQPPSVSVAPGQTARITCGGNNIGSKTVHWYQQKPGQAPVLVVYDDSDRPSGIPERFSGSNSGNTATLTISRVEAGDEADYYCQVGTDWSDHLQVFGGGTKLTVLGGSGGSGGSGGSGGSGGSGGSEVQLVQSGAEVKKPGESLKISCKGSGYSFTSNWIGWVRQMPGKGLEWMGMIWPGDSDTMYSPSFQGQVTISADESINTAYLQWSSLKASDTAMYYCARRETTTVGRYYYAMDYWGQGTLVTVSSGGSGGSGGSSYVLTQPSSVSVAPGQTATISCGGHNIGSKNVHWYQQRPGQSPVLVIYQDNKRPSGIPERFSGSNSGNTATLTISGTQAMDEADYYCQVWDNYSVLFGGGTKLTVLGGSGGSGGSSYVLTQPSSVSVAPGQTATISCGGHNIGSKNVHWYQQRPGQSPVLVIYQDNKRPSGIPERFSGSNSGNTATLTISGTQAMDEADYYCQVWDNYSVLFGGGTKLTVLGGSGGSGGSQVQLQQSGAELARPGASVKMSCKASGYTFTTYTIHWVRQRPGHDLEWIGYINPSSGYSDYNQNFKGKTTLTADKSSNTAYMQLNSLTSEDSAVYYCARRADYGNYEYTWFAYWGQGTTVTVSSGGSGGSGGSGGSGGSGGSDIVMTQSPKFMSTSVGDRVTVTCKASQNVGTNVAWFQQKPGQSPKVLIYSASYRYSGVPDRFTGSGSGTDFTLTISNVQSEDLAEYFCQQYHTYPLTFGGGTKLEINAAAGSHHHHHH
# chain 2: QVQLVQSGAEVKKPGESLKVSCKASGYTFTSYYMHWVRQAPGQGLEWMGIINPSGGSTSYAQKFQGRVTMTRDTSTSTVYMELSSLRSEDTAVYYCARGSAYYYDFADYWGQGTLVTVSSGGSGGSGGSQVQLVQSGAEVKKPGESLKVSCKASGYTFTSYYMHWVRQAPGQGLEWMGIINPSGGSTSYAQKFQGRVTMTRDTSTSTVYMELSSLRSEDTAVYYCARGSAYYYDFADYWGQGTLVTVSSAAAGSDYKDDDDK
# What was measured:
# [1] = biological target: T1, CD30; assay: flow cytometry on KARPAS-299 cells, anti-His detection
# Experimental: (§1) Single-positive CD19+/CD30− Raji and CD19-/CD30+ KARPAS-299 cells as well as double-positive CD19+/CD30+ MEC-1 were stained with serial dilutions of the trispecific antibody molecules and cell surface bound antibodies were detected by mAb anti-His followed by FITC-conjugated goat anti-mouse IgG. Mean fluorescence intensities determined by flow cytometry were used to calculate KD values by non-linear regression. KD values for trispecific antibody molecules were determined in two independent experiments. […]
# (§2) After repeated washing with FACS buffer, cell-bound antibodies were detected with 10 μg/mL anti-His mAb 13/45/31-2 (Dianova, Hamburg, Germany, cat.: DIA910-1MG) followed by 15 μg/mL FITC-conjugated goat anti-mouse antibody (Dianova, cat.: 115-095-062). […] The fluorescence of 2-5×10³ living cells was measured using a Beckman-Coulter FC500 MPL flow cytometer using the MXP software (Beckman-Coulter, Krefeld, Germany) or a Millipore Guava EasyCyte flow cytometer (Merck Millipore, Schwalbach, Germany). Mean fluorescence intensities of the cell samples were calculated using CXP software (Beckman-Coulter) or Incyte software (Merck Millipore, Schwalbach, Germany). […]
# [2] = biological target: T1, CD30; assay: flow cytometry on Karpas-299 cells
# Experimental: as §1, §2
binder,measurement,setting,value
B1,binding,[1],binds
same,binding,[2],binds
